# Reference: PubChem BioAssay AID504444 (National Center for Advancing Translational Sciences (NCATS), 2011)
# In all, about 360,000 compounds went through this assay and about 7,500 (2.1%) were called active. Inconclusive means that the source gave no clear call. Such entries were picked first, then a sample of the others. Calls follow the shape of the dose curve; as a rule, active = well fitted inhibition curve with a large enough effect; inconclusive = small, poorly fitted or top-dose-only effect, or effect the other way; inactive = flat fitted curve, though single readings scatter. A potency beside an inconclusive call is a rough fit, not a confirmed value.
# Assay: Nrf2 qHTS screen for inhibitors; also: nearly all actives have a fitted effect of over 60% in size
# Details: A549 ARE-Fluc reporter, luciferase luminescence, 18-24 h; activity change, negative = inhibition: at 46 µM (top of the series)
# Summary of the method: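 Reporter: ARE-Fluc in A549. Exposure: 18-24 h, 37 °C, 5% CO2, 5% FBS OPTI-MEM. Readouts: fluorescent cytotoxicity (CellTiter-Fluor), then luminescent Nrf2 signal after BugLite.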
# % is scaled to controls: 0 for no effect and ±100 for the full control effect; potency is read from the fitted curve at half-maximal effect.
SMILES,Potency,"activity change, negative = inhibition"
COc1ccsc1C(=O)Nc1ccc(F)cc1F,"inconclusive: 4.11 µM [activator, partial curve]",
COc1ccccc1CC(=O)Nc1ccc(-c2noc(COc3ccc(Br)cc3)n2)cc1,"inconclusive: 29.1 µM [falling, single point]",
Cc1ccc(/C=C/c2nc3ccccc3s2)s1,"inconclusive: 29.1 µM [falling, single point]",
Cc1ccc(NC(=O)c2ccco2)c(NC(=O)c2ccccc2C)c1,"inconclusive: 29.1 µM [activator, single point]",
CCc1ccc(NC(=O)CC(NCc2cccnc2)C(=O)O)cc1 (stereo unspecified),,inactive: 4.68%
O=S(=O)(Nc1ncccn1)c1ccc(NC(=S)N2CCN(c3cccc(C(F)(F)F)c3)CC2)cc1,"inconclusive: 29.1 µM [falling, partial curve, poor fit]",
CCOC(=O)c1cc(NC(=O)c2ccc(Cl)cc2)c(=O)n2c1oc1ccc(Cl)cc12,"inconclusive: 0.116 µM [falling, partial curve, poor fit]",
Cc1ccccc1N1CCN(C2=NC(=O)/C(=C\c3cccs3)S2)CC1,"inconclusive: 29.1 µM [falling, single point]",
Cc1nn(C)c(Sc2ccccc2N)c1[N+](=O)[O-],,inactive: 7.55%
Cc1nn2c(N3CCCC3)c3c(nc2c1-c1ccccc1)CCC3,"inconclusive: 16.4 µM [falling, partial curve, poor fit]",
COc1cccc(OC)c1C(=O)Nc1ccccc1Sc1ccccc1,"inconclusive: 32.6 µM [falling, single point]",
Cc1ccc(Oc2ccccc2NC(=O)CSCC(=O)Nc2cc(C)on2)cc1,"inconclusive: 16.4 µM [falling, partial curve, poor fit]",
Fc1ccc(-c2noc(C3CCN(Cc4cccnc4)CC3)n2)cc1,"inconclusive: 23.1 µM [falling, partial curve, poor fit]",
COc1ccc(-n2nc(C(=O)NCC(=O)N3CCC(C)CC3)c3ccccc3c2=O)c(OC)c1,"inconclusive: 5.8 µM [activator, full curve, poor fit]",
Cc1ccccc1N(CC(=O)NC1CCCC1)C(=O)c1oc(C(C)(C)C)cc1C,"inconclusive: 18.4 µM [falling, partial curve]",
CC(=O)Nc1c(C(=O)c2ccc(F)cc2)oc2ccccc12,"inconclusive: 0.517 µM [falling, partial curve, poor fit]",
Cc1ccc(C(=O)CSc2nc(C)cc(C)c2C(=O)Nc2cccc(C)c2)cc1,,inactive: -6.36%
COc1ccccc1[C@@]1(C)ON(c2ccccc2C(F)(F)F)C1=O,,inactive: -33.5%
COc1cccc2c1C(=O)c1c(O)c3c(c(O)c1C2=O)CC(O)(C(C)=O)CC3OC1CC(O)C(O)C(C)O1 (stereo unspecified),active: 10.3 µM,
O=C(CSc1nnc(-c2ccncc2)o1)Nc1cccc(F)c1,,inactive: 12%
O=C(Nc1ccc(Cl)cc1)Nc1ccc(Br)cn1,"inconclusive: 11.6 µM [activator, partial curve, poor fit]",
O=C(CCC(=O)c1ccc(Br)cc1)Nc1cccc(C(F)(F)F)c1,"inconclusive: 2.06 µM [falling, full curve, poor fit]",

SMILES,Potency,"activity change, negative = inhibition"
CC(C)Cn1nc(C(=O)Nc2cccc(S(=O)(=O)N3CCCC3)c2)c2ccccc2c1=O,"inconclusive: 32.6 µM [falling, single point]",
COc1cccc(NC(=O)Cn2c(=O)oc3cc(S(=O)(=O)N4CCCCC4)ccc32)c1,"inconclusive: 2.59 µM [activator, partial curve, poor fit]",
O=c1c2ccccc2nc(SCc2cn3ccsc3n2)n1-c1ccccc1F,"inconclusive: 20.6 µM [falling, single point]",
Cc1ccc(-n2nnc3c(SCC(=O)NCC4CCCO4)ncnc32)cc1 (stereo unspecified),"inconclusive: 32.6 µM [falling, single point]",
Cc1c(C)n(Cc2ccc(Cl)cc2)c2ccc(C(=O)N3CCN(c4ccccc4F)CC3)cc12,,inactive: -26.6%
C(=N\N1CCN(c2ccccn2)CC1)/C1=C(N2CCOCC2)C(=C/c2ccccc2)/CC1,,inactive: 2.38%
O=C(CSc1nnc2scc(-c3ccccc3)n12)Nc1ccc2c(c1)OCCO2,"inconclusive: 29.1 µM [falling, single point]",
O=C(c1cccc(Cl)c1)N1CCN(CCCc2ccccc2)CC1,,inactive: 1.14%
CC12CN3CCN(CC(C3)/C1=N/NC(=O)Nc1ccccc1)C2,"inconclusive: 8.2 µM [activator, partial curve, poor fit]",
Cc1ccc(C[n+]2cccc(-c3ccccc3)c2)c(C)c1,"inconclusive: 20.6 µM [falling, partial curve, poor fit]",
CC(C)C/C=C1\CCc2c([nH]c3ccccc23)C1=O,"inconclusive: 18.4 µM [activator, partial curve]",
COc1cc2c(cc1OC)CN(C(=S)Nc1cccc(Cl)c1C)CC2,active: 18.4 µM,
COc1ccc(OC)c(CCNC(=O)c2nc(-c3ccc(Cl)cc3)n3c2CCCCC3)c1,"inconclusive: 16.4 µM [falling, single point]",
COc1ccc(C(=O)C2CCCN(Cc3c(F)ccc(F)c3F)C2)c(OC)c1 (stereo unspecified),"inconclusive: 25.9 µM [falling, partial curve, poor fit]",
CC(C)COc1ccc(C(=O)N2CCCCC2CCN2CCOCC2)cc1 (stereo unspecified),,inactive: 3.71%
COC(=O)c1ccccc1NC(=O)C1CCCN(S(=O)(=O)c2ccccc2)C1 (stereo unspecified),"inconclusive: 20.6 µM [falling, partial curve]",
CC1CN(CCc2ccccc2)C(C)C/C1=N/O (stereo unspecified),"inconclusive: 20.6 µM [falling, partial curve, poor fit]",
COc1cccc2cc(-c3nc4sc5c(c4c(=O)[nH]3)CCC(C(C)(C)C)C5)c(=O)oc12 (stereo unspecified),"inconclusive: 29.1 µM [activator, single point]",
COc1ccccc1NS(=O)(=O)c1cc(C(=O)N2CCCCCCC2)ccc1C,"inconclusive: 25.9 µM [falling, partial curve, poor fit]",
CCCNC(=O)Cn1c(=O)/c(=C/c2ccc(-c3ccc([N+](=O)[O-])cc3)o2)s/c1=C\C(=O)C(C)(C)C,,inactive: -15.2%
COc1ccc(/C=C/c2nc(C#N)c(N3CCCCC3)o2)cc1OC,,inactive: -21.3%
CCc1c(C)nc2c(Br)cccc2c1SCCC#N,"inconclusive: 13 µM [falling, partial curve, poor fit]",

SMILES,Potency,"activity change, negative = inhibition"
O=C(Nc1ccccc1O)c1ccc(NS(=O)(=O)c2cccc3cccnc23)cc1,,inactive: -9.7%
Cc1ccccc1S(=O)(=O)Cc1ccc(C(=O)N2CCN(c3cccc(C)c3C)CC2)o1,active: 10.3 µM,
O=C(NCc1cccc(C(F)(F)F)c1)c1cccc(S(=O)(=O)NCc2ccccc2)c1,"inconclusive: 29.1 µM [falling, single point]",
Cc1ccc2c(=O)cc(C(=O)Nc3c(C)cccc3C)oc2c1,,inactive: -6.98%
O=C(N[C@H]1C/C=C\C[C@@H](CC(=O)N(CCO)Cc2ccccc2)C(=O)NC[C@H](c2ccccc2)OC1=O)OCC1c2ccccc2-c2ccccc21,"inconclusive: 29.1 µM [falling, single point]",
C=CCN(Cc1cccs1)C(=O)COc1ccc2c(c1)OCO2,"inconclusive: 4.61 µM [activator, full curve]",
CCCCN(Cc1cc2cc(C)ccc2[nH]c1=O)C(=O)c1cccc(Cl)c1,,inactive: 14%
Cc1ccc(N2C(=O)CC(c3c[nH]c4ccccc34)C2=O)cc1 (stereo unspecified),"inconclusive: 16.4 µM [activator, single point]",
Cc1nc2c3ccccc3nc(NNC(=O)CCC(=O)N3CCN(c4ccc(F)cc4)CC3)n2n1,"inconclusive: 13 µM [falling, partial curve, poor fit]",
c1ccc(-c2cn3nc(-c4ccccc4)cnc3n2)cc1,"inconclusive: 8.2 µM [activator, partial curve]",
c1ccc(CCn2nnnc2C(c2cccnc2)N2CCN(c3nc4ccccc4s3)CC2)cc1 (stereo unspecified),"inconclusive: 18.4 µM [falling, single point]",
Cc1c(Cl)cccc1NS(=O)(=O)c1cc2c(cc1F)NC(=O)CC2,"inconclusive: 29.1 µM [falling, single point]",
CCSc1nc(-c2ccc(OC)cc2)nc2c1Cc1c(CO)cnc(C)c1O2,,inactive: 21.2%
Cc1cccc(NC(=O)CSc2nc(C3CC3)nc3ccccc23)c1,"inconclusive: 29.1 µM [activator, single point]",
CCC(=O)N1CCc2cc(Br)cc(S(=O)(=O)N3CCCC(C(=O)NCc4ccc(C)cc4)C3)c21 (stereo unspecified),"inconclusive: 11.6 µM [falling, partial curve, poor fit]",
CC1(C)CC(NC(=S)NC(=O)c2cc(Br)ccc2Cl)CC(C)(C)N1,,inactive: -11.9%
COc1ccc(N(C(=O)Cn2nnc3ccccc32)C(C(=O)NCc2ccccc2)c2ccc(F)cc2)cc1 (stereo unspecified),,inactive: -23.5%
COc1ccc(CCNC(=O)c2cc(=O)c3cc(C)c(C)cc3o2)cc1OC,"inconclusive: 23.1 µM [falling, single point]",
C#CC(=O)N(c1ccc(OC)cc1OC)C(C(=O)NC1CCCC1)c1cccs1 (stereo unspecified),,inactive: -11.6%
O=C1CNC(=S)N1CCc1ccc(O)c(O)c1,"inconclusive: 16.4 µM [activator, partial curve, poor fit]",
CCC(=O)N1CCN=C1SCc1ccc(Cl)cc1,"inconclusive: 2.59 µM [falling, full curve, poor fit]",
CCN(c1ccccc1)S(=O)(=O)c1cccc(C(=O)N2CCN(S(=O)(=O)c3ccccc3)CC2)c1,"inconclusive: 23.1 µM [falling, single point]",

# Record cards, from the list above.
# COC(=O)c1ccccc1NC(=O)C1CCCN(S(=O)(=O)c2ccccc2)C1 (stereo unspecified) is listed as Potency: inconclusive: 20.6 µM [falling, partial curve]
# COc1ccsc1C(=O)Nc1ccc(F)cc1F is listed as Potency: inconclusive: 4.11 µM [activator, partial curve]
# COc1cc2c(cc1OC)CN(C(=S)Nc1cccc(Cl)c1C)CC2 is listed as Potency: active: 18.4 µM
